# Measurements: paper PMC12040169 (PLOS Biology, 2025)
# The other results are listed elsewhere or left out.
# Test system: T1, CTL2-GFP (C. trachomatis L2/434/Bu, GFP-expressing)
# T1 construct: L2/434/Bu, GFP-expressing
# Parameters: species or system HeLa; Intracellular C. trachomatis growth in HeLa cells, bulk GFP fluorescence relative to DMSO
# Conditions: bulk GFP, single well; 28.5 h, 10 µM; inhibitor
row,Compound,% of control remaining [%]
1,N=C(N)NCCc1ccc(Cl)cc1 [CBK024074G],61.8853
2,CS(=O)(=O)c1ccc(-n2nnnc2CN2CCC3(CCCC3)C2)cc1 [CBK306178],174.713
3,Cc1cc(C)n(CC(=O)N2CCC(c3cc4cccnc4[nH]3)CC2)n1 [CBK284999],92.6053
4,O=C1Nc2ccccc2C12NN=C(c1ccccc1)S2 (stereo not shown) [CBK017221],85.4693
5,CCOc1ccc(Cc2nnc(S)n2C2CC2)cc1OCC [CBK288388],145.637
6,O=C(CN1CCCC1)Nc1sc2c(c1C(=O)NCc1ccccc1)CCCC2 [CBK268926],110.165
7,COCC(=O)N1CCc2sccc2C1c1ccc(NC(=O)c2ccccc2F)cc1 (stereo not shown) [CBK286469],134.871
8,Nc1ncc(-c2ccncc2)nc1NC1CCCCC1 [CBK063604],189.982
9,COc1ccc(NC(=O)CC2SC(NC3CCCCC3)=NC2=O)c(OC)c1 (stereo not shown) [CBK059502],124.718
10,O=C(Cc1c[nH]c2ccccc12)Nc1cnc(-c2cccc(OC(F)(F)F)c2)c(-c2cccnc2)n1 [CBK036863],204.129
11,Oc1cccc(-c2cc(CC3(NCc4cnc5ccccc5c4)COC3)no2)c1 [CBK289662],80.4313
12,CCC(=O)N1C[C@@H](N(C)C)[C@H](c2cn(C)c3ccccc23)C1 [CBK285008],154.028
13,COc1cc(-c2cncc(NCc3cccc(Cl)c3)n2)cc(OC)c1OC [CBK065284],90.7841
14,Cc1ccc(-c2csc(NC(=O)c3cccnc3)n2)cc1 [CBK072677],66.0716
15,CCN(C(=O)Cn1c(=O)cc(C)c2ccccc21)C1CCN(C)CC1 [CBK281871],119.989
16,CC(=O)N1CCN(C(=O)c2nn(-c3ccc(F)cc3)c3c2CCCCC3)CC1 [CBK295293],108.912
17,CS(=O)(=O)N1CCc2cc(-c3cc4ccccn4c3)ccc21 [CBK285256],93.5128
18,COc1ccc(/C=N/NS(=O)(=O)c2ccc(C)cc2)cc1CSc1ccccn1 [CBK263036],85.9441
19,Cc1ccc(S(=O)(=O)N2CCN(C(c3ccccc3)c3ccccc3)CC2)cc1[N+](=O)[O-] [CBK293949],118.473
20,Cc1ccc(-c2nnc(CNC(=O)C(c3ccccc3)c3ccccc3)o2)s1 [CBK286299],100.703
21,COc1ccc([C@@H]2CCN(C(=O)Cc3ccc(F)cc3)C[C@H]2O)cc1 [CBK283709],118.907
22,Cn1nc(NC(=O)c2cnccn2)c2c(N3CCOCC3)cccc21 [CBK306716],119.852
23,CC(C)C(C(=O)O)N1C(=O)C2C3C=CC(C3)C2C1=O (stereo not shown) [CBK286535],98.3586
24,S=c1[nH]cc(-c2ccc(Br)cc2)o1 [CBK288498],115.473
25,CSCCN1CCN(c2nccnc2OCCN2C(=O)CCC2=O)CC1 [CBK084301],106.302
26,CCCOC(=O)N(O)c1ccc(Cl)c(Cl)c1 [CBK288400],69.2194
27,CCn1c2cc(C)sc2c2cnn(CC(=O)NC(C)C)c(=O)c21 [CBK284172],120.924

row,Compound,% of control remaining [%]
1,NC(=O)CCNC(=O)N1CCc2ccccc2C1 [CBK155288],149.842
2,COc1ccccc1CC(=O)N1CCC(Cc2cccc(-c3cccs3)c2)(C(N)=O)CC1 [CBK285743],119.789
3,COc1ccccc1-c1cc(N2CCN(CC(=O)N(C)c3ccccc3)CC2)ncn1 [CBK091136],222.801
4,CC(=O)N1CCC(Cn2nc(-c3ccc(F)cc3)ccc2=O)CC1 [CBK282406],127.83
5,O=C(Nc1ccc(O)cc1)c1cnc(-c2ccc(Cl)cc2)c(-c2cccnc2)c1 [CBK037516],184.535
6,CCN1CCCCC1CNC(=O)Cn1nc(C)cc1C (stereo not shown) [CBK282057],109.75
7,O=C(C[C@@H]1O[C@H](CNS(=O)(=O)c2ccccc2)[C@@H](O)[C@H]1O)N1CCCC1 [CBK288909],128.278
8,CN(Cc1ccccc1)c1nccnc1-c1cccnc1 [CBK037414],100
9,COC(=O)c1ccc(NC(=O)c2ccccc2-c2ccccc2C(=O)O)cc1 [CBK265759],87.2085
10,Cc1nc(C)c(S(=O)(=O)Nc2ccccc2-c2nnnn2C(C)C)s1 [CBK305508],129.734
11,CCN(CC)C(=O)C1CCCN(C(=O)NCc2ccc3c(c2)OCO3)C1 (stereo not shown) [CBK156121],115.833
12,Nc1c(-c2cccc(C(F)(F)F)c2)cnc2cccnc12 [CBK081187],111.91
13,COc1cccc(NC(=O)CSc2ccc(Cl)cc2)c1 [CBK263811],114.548
14,Cc1cc(F)c(S(N)(=O)=O)cc1NC(=O)c1ccc(C(F)(F)F)cc1 [CBK051448],106.658
15,O=C1CC(C(=O)Nc2ccccc2)NC(Nc2cc(Cl)cc(Cl)c2)=N1 (stereo not shown) [CBK268752],110.542
16,O=C(C1=C(O)C(=O)N(CCCN2CCOCC2)C1c1cccs1)c1cccs1 (stereo not shown) [CBK264533],114.356
17,O=C1CCCN1c1ccc(S(=O)(=O)NCC2CC3CCC2C3)cc1 (stereo not shown) [CBK282841],95.099
18,Cn1c(C(=O)NCCc2cnccn2)cc2cc(Cl)ccc21 [CBK281575],93.1898
19,Cc1ccc2nc(COC(=O)c3cc(-c4ccccc4)nn3-c3ccccc3)cc(=O)n2c1 [CBK296959],154.622
20,Cc1nn(C)cc1-c1cncn1C(C)c1ccc2c(c1)CCCO2 (stereo not shown) [CBK281798],112.72
21,CCOc1ccc(Oc2nc(N(C)C)nc(N3CCOCC3)n2)nn1 [CBK269585],97.3603
22,COc1nc(NCCc2ccc(OC)c(OC)c2)nc(OC)n1 [CBK266304],162.357
23,CCOCCCC(=O)N1CCn2c(nnc2-c2cncc(Br)c2)C1 [CBK304764],143.919
24,c1ccc2c(c1)OCc1nnc(CCN3CCCCC3)n1-2 [CBK005285],154.999
25,c1ccc(N2CCN(c3nc(-c4ccoc4)cn4ccnc34)CC2)nc1 [CBK066522],110.948
26,COCc1cn(C[C@H]2CC3CCN2C[C@@H]3C(=O)NC2CC2)nn1 (stereo partly shown) [CBK288835],124.023
27,CCCn1c(NC(=O)C(C)Oc2ccc(Cl)cc2Cl)nc2ccccc21 (stereo not shown) [CBK296979],36.2331

row,Compound,% of control remaining [%]
1,Cn1nc(C(=O)NCC2(c3cccc(F)c3)CCCC2)ccc1=O [CBK281437],125.374
2,CC(=O)Nc1cccc(-c2cncc(NCCc3c[nH]c4ccccc34)n2)c1 [CBK037820],109.571
3,O=C(c1ccco1)N1CCC[C@H]1[C@H](O)c1nc2ccccc2s1 [CBK284290],101.889
4,Cc1ccccc1-c1noc(CNC(Cn2ccnc2)C(C)C)n1 (stereo not shown) [CBK307560],112.562
5,CCNC(=O)C1(NC(=O)Cc2cn3cccc(C)c3n2)CCCCC1 [CBK304933],100.038
6,Cn1ncc2c1CCCN(C(=O)CCc1ccccc1F)C2 [CBK285255],141.733
7,O=C(Nc1cc(F)ccc1N1CCCC1)c1ccc(=O)n(CC(=O)N2CCCCC2)c1 [CBK286083],119.542
8,FC1(F)Oc2ccc(Nc3cncc(-c4cccs4)n3)cc2OC1(F)F [CBK065727],153.653
9,O=C(O)c1cccc(NS(=O)(=O)c2ccc(F)c(C(F)(F)F)c2)c1 [CBK155693],102.516
10,Cc1cc(NC(=O)CN2CC=C(c3ccc(C)o3)CC2)no1 [CBK283608],98.7474
11,C=Cn1ncc(CN2CCCC(O)(c3ccc(F)cc3)CC2)c1C (stereo not shown) [CBK284837],139.658
12,CC(C)CCN(Cc1ccc(-c2ccc(S(C)(=O)=O)cc2)nc1)C1CCN(C(=O)OC(C)(C)C)CC1 [CBK165138],145.833
13,COc1cccc(CN2CCCC(c3nc(C)n4ccccc34)C2)c1 (stereo not shown) [CBK282989],148.951
14,COc1ccc(C)cc1S(=O)(=O)N(C)CC(=O)Nc1cccc(SC)c1 [CBK267510],104.987
15,c1ccc2c(c1)CSCC2Oc1cncc(N2CCNCC2)n1 (stereo not shown) [CBK172356T],108.537
16,Cc1ccc(/C(N)=N/OC(=O)CN(C)S(=O)(=O)c2ccc3ccccc3c2)cc1 [CBK267363],152.265
17,Cn1nccc1CCNS(=O)(=O)c1cccc(C(=O)N2CCCCC2)c1 [CBK307086],122.744
18,Cc1csc2c(NC(C)C)ncnc12 [CBK017059],144.326
19,NC(=O)CN1CC2(CCN(CCc3c[nH]c4ccccc34)CC2)c2ccccc21 [CBK126784],98.0718
20,COc1ccc2[nH]c3c(c2c1)CCNC31CCN(Cc2cc(F)cc(F)c2)C1 (stereo not shown) [CBK039368],88.3185
21,Cn1c(=O)oc2ccc(C(=O)NCCN3CCCCC3CO)cc21 (stereo not shown) [CBK307594],161.52
22,O=C1NCCNC(=O)C2(CCCCOc3ccccc31)CCN(C(=O)c1ccnnc1)CC2 [CBK292105],163.926
23,Cc1cc(C(=O)Nc2cccc(S(=O)(=O)N3CCOCC3)c2)sc1-c1ccccc1 [CBK268185],27.6951
24,Cc1cc(C(=O)N2CCC(c3nccn3C)CC2)ccc1F [CBK304355],141.877
25,CCc1c(S(=O)(=O)CCC(=O)OC)c2ccccc2[n+]([O-])c1C [CBK155469T],105.211

# Laid out differently: entries from further up
row | Compound | % of control remaining [%]
5 | CCNC(=O)C1(NC(=O)Cc2cn3cccc(C)c3n2)CCCCC1 [CBK304933] | 100.038
6 | Cn1ncc2c1CCCN(C(=O)CCc1ccccc1F)C2 [CBK285255] | 141.733
7 | O=C(Nc1cc(F)ccc1N1CCCC1)c1ccc(=O)n(CC(=O)N2CCCCC2)c1 [CBK286083] | 119.542
8 | FC1(F)Oc2ccc(Nc3cncc(-c4cccs4)n3)cc2OC1(F)F [CBK065727] | 153.653
9 | O=C(O)c1cccc(NS(=O)(=O)c2ccc(F)c(C(F)(F)F)c2)c1 [CBK155693] | 102.516
10 | Cc1cc(NC(=O)CN2CC=C(c3ccc(C)o3)CC2)no1 [CBK283608] | 98.7474
